In paper PMC7955138:
No constants are given. Whether binding was seen depends on the method and setting. In cells and extracts the contact can be indirect. Some binding calls cover weakened binding; strength is not graded here.

By UniProt entry, the sequences of proteins in these tests, tags left out. Residues count along the entry.
UniProt Q6DN90: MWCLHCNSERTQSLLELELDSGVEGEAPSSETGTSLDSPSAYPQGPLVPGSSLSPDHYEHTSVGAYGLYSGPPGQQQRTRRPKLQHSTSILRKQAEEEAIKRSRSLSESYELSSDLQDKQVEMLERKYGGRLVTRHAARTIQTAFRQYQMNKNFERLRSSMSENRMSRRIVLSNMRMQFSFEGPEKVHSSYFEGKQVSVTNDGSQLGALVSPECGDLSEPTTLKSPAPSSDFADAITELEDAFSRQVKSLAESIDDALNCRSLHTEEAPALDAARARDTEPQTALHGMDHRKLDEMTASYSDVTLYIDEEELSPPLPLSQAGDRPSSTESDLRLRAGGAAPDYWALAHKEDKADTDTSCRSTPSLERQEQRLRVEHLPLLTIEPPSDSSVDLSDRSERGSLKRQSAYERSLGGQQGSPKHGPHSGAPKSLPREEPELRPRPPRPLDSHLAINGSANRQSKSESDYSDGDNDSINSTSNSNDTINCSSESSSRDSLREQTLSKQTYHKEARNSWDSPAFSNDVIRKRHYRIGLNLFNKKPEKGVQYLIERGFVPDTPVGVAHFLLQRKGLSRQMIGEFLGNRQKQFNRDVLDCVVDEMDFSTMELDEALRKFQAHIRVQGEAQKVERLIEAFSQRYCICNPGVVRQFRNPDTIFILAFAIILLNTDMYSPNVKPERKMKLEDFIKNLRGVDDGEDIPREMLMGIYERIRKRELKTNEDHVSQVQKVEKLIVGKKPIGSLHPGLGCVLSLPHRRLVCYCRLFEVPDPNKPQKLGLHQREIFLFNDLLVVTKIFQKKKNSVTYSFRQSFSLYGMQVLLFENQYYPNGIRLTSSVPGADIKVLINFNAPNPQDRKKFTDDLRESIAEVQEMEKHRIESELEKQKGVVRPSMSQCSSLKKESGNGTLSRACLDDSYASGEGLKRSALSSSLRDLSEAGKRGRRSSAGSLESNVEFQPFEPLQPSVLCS
UniProt P08581, residues 25-1390: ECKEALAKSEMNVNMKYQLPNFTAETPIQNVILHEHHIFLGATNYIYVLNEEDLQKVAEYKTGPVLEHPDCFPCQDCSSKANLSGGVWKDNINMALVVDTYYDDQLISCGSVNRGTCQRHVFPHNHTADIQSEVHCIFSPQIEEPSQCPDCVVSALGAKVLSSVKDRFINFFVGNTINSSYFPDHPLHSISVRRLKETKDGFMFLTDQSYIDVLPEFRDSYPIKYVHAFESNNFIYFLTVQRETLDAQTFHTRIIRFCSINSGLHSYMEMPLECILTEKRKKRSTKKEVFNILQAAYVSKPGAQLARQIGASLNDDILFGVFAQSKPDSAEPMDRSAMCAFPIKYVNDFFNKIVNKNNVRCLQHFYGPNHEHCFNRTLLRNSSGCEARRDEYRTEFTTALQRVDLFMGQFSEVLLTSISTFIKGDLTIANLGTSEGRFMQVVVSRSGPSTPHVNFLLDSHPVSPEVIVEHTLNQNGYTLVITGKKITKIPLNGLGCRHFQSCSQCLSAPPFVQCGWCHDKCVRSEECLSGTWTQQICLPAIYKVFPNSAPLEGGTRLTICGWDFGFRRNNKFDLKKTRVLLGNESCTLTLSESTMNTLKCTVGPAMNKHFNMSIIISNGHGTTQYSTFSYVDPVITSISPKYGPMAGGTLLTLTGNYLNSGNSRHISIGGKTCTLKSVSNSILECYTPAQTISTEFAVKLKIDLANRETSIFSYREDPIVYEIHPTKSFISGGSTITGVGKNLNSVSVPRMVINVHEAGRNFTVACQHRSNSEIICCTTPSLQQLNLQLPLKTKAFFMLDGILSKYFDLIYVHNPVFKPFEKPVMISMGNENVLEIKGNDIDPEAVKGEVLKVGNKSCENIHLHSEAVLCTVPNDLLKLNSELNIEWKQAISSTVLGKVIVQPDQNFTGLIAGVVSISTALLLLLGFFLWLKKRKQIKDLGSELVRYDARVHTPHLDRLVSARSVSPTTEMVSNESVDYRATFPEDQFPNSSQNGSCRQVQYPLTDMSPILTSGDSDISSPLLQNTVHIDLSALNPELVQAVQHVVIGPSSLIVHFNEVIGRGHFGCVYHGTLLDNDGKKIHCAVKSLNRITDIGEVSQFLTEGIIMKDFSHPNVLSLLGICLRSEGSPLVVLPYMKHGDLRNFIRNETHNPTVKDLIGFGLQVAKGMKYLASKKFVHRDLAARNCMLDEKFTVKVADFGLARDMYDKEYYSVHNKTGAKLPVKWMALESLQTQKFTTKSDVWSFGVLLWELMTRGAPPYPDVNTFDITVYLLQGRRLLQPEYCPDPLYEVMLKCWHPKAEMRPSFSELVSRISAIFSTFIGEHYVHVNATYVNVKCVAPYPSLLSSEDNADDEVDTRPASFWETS

Experiments:
GFP-IQSEC1 v2 (human) = GFP-IQSEC1 v2 (human) (UniProt Q6DN90); assay: co-IP; GFP-Trap Kit (Chromotek) on lysates of cells expressing GFP, GFP-IQSEC1 v2 or v4; western blot with anti-Met and anti-LRP1
[1] = target: Met (human (endogenous in PC3)) (UniProt P08581); assay: co-IP; 1 mg cell lysate immunoprecipitated with anti-Met antibody overnight at 4 C, anti-mouse agarose, immunoblot; compared at different IQSEC1 expression levels

Substance | binding (GFP-IQSEC1 v2 (human)) | binding [1]
Low density lipoprotein receptor-Related Protein 1 (from UniProt Q07954 20-4544) | binds | binds
Met (from UniProt P08581 25-1390) (receptor) | binds | 
